Results deposited as PubChem BioAssay AID1224830 (NIAID, 2016).

Assay: 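Host factors that control LPS-induced TNF expression in human macrophages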 (primary screen)
System: human THP-1 monocytic leukaemia cells, TNF dual-luciferase reporter clone, PMA-differentiated to macrophage-like cells
Knock-down reagent: siRNA pool against human genes, 50 nM
Timing: LPS for 4 h, given about 3 days after siRNA transfection
Treatment: bacterial LPS (TLR4 ligand), 10 ng/ml
Read-out: 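TNF firefly reporter luminescence divided by renilla, normalised to the plate median, then turned into a robust z-score for each replicate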
Reading the numbers: TNF reporter robust z-score: higher = stronger TNF reporter response to LPS
Hit rule: 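Each well counts as active if its z-score is over 2.8 or under -1.5; controls are left without a call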
The deposit covers about 18,000 reagents; shown is an unselected part. About 2,900 of all reagents (16%) were called active. 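Calls are made per well; low scores hint the gene aids the LPS response, high scores that it dampens it.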 Repeated entries: four replicate wells of each siRNA pool.

target gene	TNF reporter robust z-score	Outcome
PAN2	0.84	inactive
PAN2	0.01	inactive
PAN2	0.66	inactive
PAN2	0.08	inactive
OR8D1	-0.35	inactive
OR8D1	0.08	inactive
OR8D1	1.72	inactive
OR8D1	1.37	inactive
PSMD10	0.09	inactive
PSMD10	-0.14	inactive
PSMD10	-0.06	inactive
PSMD10	1.26	inactive
PI4K2B	0.86	inactive
PI4K2B	0.37	inactive
PI4K2B	0.39	inactive
PI4K2B	0.03	inactive
ST3GAL6	-0.64	inactive
ST3GAL6	1.81	inactive
ST3GAL6	-0.11	inactive
ST3GAL6	-0.02	inactive
PLPP7	0.66	inactive
PLPP7	2	inactive
PLPP7	1.94	inactive
PLPP7	-1.37	inactive
SNRNP27	0.3	inactive
SNRNP27	-0.01	inactive
SNRNP27	-0.06	inactive
SNRNP27	3.52	active
TP53RK	-0.77	inactive
TP53RK	-0.33	inactive
TP53RK	0.03	inactive
TP53RK	0.01	inactive
PTGS2	-0.35	inactive
PTGS2	-0.63	inactive
PTGS2	0.65	inactive
PTGS2	0.37	inactive
ZFAND2B	1.18	inactive
ZFAND2B	5.14	active
ZFAND2B	2.33	inactive
ZFAND2B	0.91	inactive
BICRA	-0.01	inactive
BICRA	1.07	inactive
BICRA	-0.36	inactive
BICRA	1.05	inactive
VNN3P	-0.11	inactive
VNN3P	-0.62	inactive
VNN3P	-0.32	inactive
VNN3P	-0.99	inactive
